{"source": "patent US12185721B2", "about": "“Glycoside compound of fatty acids, composition comprising it, process for its obtention and methods to apply it on plants or fruits or both at the same time” (Consejo Nacional de Investigaciones Científicas y Técnicas …, priority 2020, dated 2025)", "origin": "cited, not measured here", "test_system": "Clavibacter michiganensis subsp. sepedonicus C5", "settings": "described values; cited from earlier work", "note": "For at least one compound, name, drawing or mass did not settle the structure."}
{"smiles": "NC[C@H]1O[C@H](O[C@H]2[C@H](O)[C@@H](O[C@H]3O[C@H](CO)[C@@H](O)[C@H](N)[C@H]3O)[C@H](N)C[C@@H]2N)[C@H](O)[C@@H](O)[C@@H]1O", "note": "[Kanamycin]", "values": [{"measurement": "CE50 (μg/ml) for commercial antimicrobial", "result": "Kanamycin 2.5 μg/ml"}]}
